Experimental data taken from paper doi:10.1101/822031.
Read-outs that look alike come from different tables or passages of the source. No constants are given. Whether binding was seen depends on the method and setting. Binding seen in cells or lysates may run through a third protein. Some entries that bind do so weakly or less than the wild type. For some assays here: Tags and fused reporters may be left off the sequences shown.

The chains behind the UniProt entries cited, without tags or fusion partners. Where a name states a change or a piece, a line headed by the entry shows the natural chain unless it says otherwise.
UniProt P43378, whole entry, looked up, stated change not applied: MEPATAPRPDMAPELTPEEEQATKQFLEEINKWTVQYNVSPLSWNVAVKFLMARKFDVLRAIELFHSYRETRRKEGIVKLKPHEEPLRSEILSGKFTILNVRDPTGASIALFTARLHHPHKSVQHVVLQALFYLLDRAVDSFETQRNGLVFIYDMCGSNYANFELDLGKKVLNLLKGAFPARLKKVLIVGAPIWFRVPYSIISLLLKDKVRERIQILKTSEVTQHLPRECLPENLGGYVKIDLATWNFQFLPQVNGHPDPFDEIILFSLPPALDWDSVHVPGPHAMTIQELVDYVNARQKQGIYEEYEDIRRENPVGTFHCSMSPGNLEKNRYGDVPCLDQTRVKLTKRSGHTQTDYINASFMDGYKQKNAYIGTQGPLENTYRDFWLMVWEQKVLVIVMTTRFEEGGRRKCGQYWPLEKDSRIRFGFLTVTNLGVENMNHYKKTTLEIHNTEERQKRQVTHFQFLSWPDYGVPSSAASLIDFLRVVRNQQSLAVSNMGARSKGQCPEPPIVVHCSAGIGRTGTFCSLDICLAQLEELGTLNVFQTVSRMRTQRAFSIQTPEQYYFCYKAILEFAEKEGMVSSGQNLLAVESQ
UniProt Q9QUL6, whole entry: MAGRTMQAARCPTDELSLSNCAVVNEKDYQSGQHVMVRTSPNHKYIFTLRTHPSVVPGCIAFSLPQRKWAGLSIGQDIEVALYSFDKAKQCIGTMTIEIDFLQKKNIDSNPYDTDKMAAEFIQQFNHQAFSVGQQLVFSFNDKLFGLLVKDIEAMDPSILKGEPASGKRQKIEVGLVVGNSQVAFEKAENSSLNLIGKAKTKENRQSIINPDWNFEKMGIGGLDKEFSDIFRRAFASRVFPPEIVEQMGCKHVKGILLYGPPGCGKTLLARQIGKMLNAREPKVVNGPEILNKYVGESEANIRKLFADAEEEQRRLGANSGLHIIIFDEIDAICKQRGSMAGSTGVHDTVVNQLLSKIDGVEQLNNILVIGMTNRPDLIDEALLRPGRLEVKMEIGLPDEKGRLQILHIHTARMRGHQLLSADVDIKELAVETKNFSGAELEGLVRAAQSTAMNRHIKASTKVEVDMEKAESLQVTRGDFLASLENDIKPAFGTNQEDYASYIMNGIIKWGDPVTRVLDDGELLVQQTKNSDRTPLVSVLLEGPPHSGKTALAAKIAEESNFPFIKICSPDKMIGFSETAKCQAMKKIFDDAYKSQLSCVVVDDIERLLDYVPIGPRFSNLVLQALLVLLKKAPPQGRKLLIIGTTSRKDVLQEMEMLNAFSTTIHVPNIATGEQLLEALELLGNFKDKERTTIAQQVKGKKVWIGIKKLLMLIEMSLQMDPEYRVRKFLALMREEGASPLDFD

Legend:
Experiment in all cases: co-IP
PTP-MEG2-D470A-GFP Q559A = PTP-MEG2-D470A-GFP Q559A (UniProt P43378)
PTP-MEG2-D470A-GFP [1] = target: PTP-MEG2-D470A-GFP (UniProt P43378)
PTP-MEG2-D470A-GFP D335A = PTP-MEG2-D470A-GFP D335A (UniProt P43378)
PTP-MEG2-D470A-GFP I519A = PTP-MEG2-D470A-GFP I519A (UniProt P43378)
PTP-MEG2-D470A-GFP Y471F = PTP-MEG2-D470A-GFP Y471F (UniProt P43378)
PTP-MEG2-D470A-GFP G334R = PTP-MEG2-D470A-GFP G334R (UniProt P43378)
PTP-MEG2-D470A-GFP Y471A = PTP-MEG2-D470A-GFP Y471A (UniProt P43378)
PTP-MEG2-D470A-GFP [2] = target: PTP-MEG2-D470A-GFP (UniProt P43378); remark: listed apart in the source

Measured: binding

NSF in PC12 cell lysate (GFP pull-down) (from UniProt Q9QUL6 1-744)
binds: PTP-MEG2-D470A-GFP Q559A | PTP-MEG2-D470A-GFP [1] | PTP-MEG2-D470A-GFP D335A | PTP-MEG2-D470A-GFP I519A | PTP-MEG2-D470A-GFP Y471F | PTP-MEG2-D470A-GFP G334R | PTP-MEG2-D470A-GFP Y471A

B1: DYNAMIN2 in PC12 cell lysate (GFP pull-down) (protein, UniProt P39052 1-870)
chain: MGNRGMEELIPLVNKLQDAFSSIGQSCHLDLPQIAVVGGQSAGKSSVLENFVGRDFLPRGSGIVTRRPLILQLIFSKTEYAEFLHCKSKKFTDFDEVRQEIEAETDRVTGTNKGISPVPINLRVYSPHVLNLTLIDLPGITKVPVGDQPPDIEYQIKDMILQFISRESSLILAVTPANMDLANSDALKLAKEVDPQGLRTIGVITKLDLMDEGTDARDVLENKLLPLRRGYIGVVNRSQKDIEGRKDIRAALAAERKFFLSHPAYRHMADRMGTPHLQKTLNQQLTNHIRESLPTLRSKLQSQLLSLEKEVEEYKNFRPDDPTRKTKALLQMVQQFGVDFEKRIEGSGDQVDTLELSGGARINRIFHERFPFELVKMEFDEKDLRREISYAIKNIHGVRTGLFTPDLAFEAIVKKQVVKLKEPCLKCVDLVIQELISTVRQCTSKLSSYPRLREETERIVTTYIREREGRTKDQILLLIDIEQSYINTNHEDFIGFANAQQRSTQLNKKRAIPNQGEILVIRRGWLTINNISLMKGGSKEYWFVLTAESLSWYKDEEEKEKKYMLPLDNLKIRDVEKGFMSNKHVFAIFNTEQRNVYKDLRQIELACDSQEDVDSWKASFLRAGVYPEKDQAENEDGAQENTFSMDPQLERQVETIRNLVDSYVAIINKSIRDLMPKTIMHLMINNTKAFIHHELLAYLYSSADQSSLMEESAEQAQRRDDMLRMYHALKEALNIIGDISTSTVSTPVPPPVDDTWLQNTSSHSPTPQRRPVSSVHPPGRPPAVRGPTPGPPLIPMPVGATSSFSAPPIPSRPGPQNVFANNDPFSAPPQIPSRPARIPPGIPPGVPSRRAPAAPSRPTIIRPAEPSLLD
binds: PTP-MEG2-D470A-GFP [2]
